According to publication PMC5269740:
Results are given in words; binding and its absence hold for the method and conditions named. In cells and extracts the contact can be indirect. Some results given as binding are weak or reduced against the parent protein; the word gives no strength.

Target: T1, receptor activator of nuclear factor-κB (RANK) (mouse (endogenous in BMMs of C57BL/6 mice)) (UniProt O35305)
T1 sequence: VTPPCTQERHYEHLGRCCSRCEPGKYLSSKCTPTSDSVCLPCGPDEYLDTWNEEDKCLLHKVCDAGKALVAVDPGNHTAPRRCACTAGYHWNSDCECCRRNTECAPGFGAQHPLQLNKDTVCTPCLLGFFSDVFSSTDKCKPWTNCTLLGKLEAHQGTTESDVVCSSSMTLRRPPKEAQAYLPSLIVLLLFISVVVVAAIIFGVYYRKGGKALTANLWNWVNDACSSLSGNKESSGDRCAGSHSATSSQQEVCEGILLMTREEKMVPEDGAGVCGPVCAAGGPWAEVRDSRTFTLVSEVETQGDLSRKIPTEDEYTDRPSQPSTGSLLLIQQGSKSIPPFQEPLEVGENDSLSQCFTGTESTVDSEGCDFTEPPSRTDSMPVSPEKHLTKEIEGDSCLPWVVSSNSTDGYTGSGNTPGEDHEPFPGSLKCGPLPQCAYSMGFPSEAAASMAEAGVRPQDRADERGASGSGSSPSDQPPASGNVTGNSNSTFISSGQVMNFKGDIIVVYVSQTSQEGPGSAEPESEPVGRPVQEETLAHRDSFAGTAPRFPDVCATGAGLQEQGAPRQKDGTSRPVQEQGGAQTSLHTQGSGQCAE
Assay: co-IP; lysates of BMMs (IP lysis buffer) precipitated with anti-RANK antibody at 4 °C overnight and protein A sepharose beads, blotted with anti-TRAF6; cells pre-treated with or without 100 ng/ml IL-6 and 100 ng/ml sIL-6R for 4 h, then stimulated with 10 or 50 ng/ml RANKL for 0, 5, 15 or 30 min

binding: binds
B1: TNF receptor associated factor 6 (TRAF6) (protein, UniProt P70196 1-530)
chain: MSLLNCENSCGSSQSSSDCCAAMAASCSAAVKDDSVSGSASTGNLSSSFMEEIQGYDVEFDPPLESKYECPICLMALREAVQTPCGHRFCKACIIKSIRDAGHKCPVDNEILLENQLFPDNFAKREILSLTVKCPNKGCLQKMELRHLEDHQVHCEFALVNCPQCQRPFQKCQVNTHIIEDCPRRQVSCVNCAVSMAYEEKEIHDQSCPLANIICEYCGTILIREQMPNHYDLDCPTAPIPCTFSVFGCHEKMQRNHLARHLQENTQLHMRLLAQAVHNVNLALRPCDAASPSRGCRPEDPNYEETIKQLESRLVRQDHQIRELTAKMETQSMYVGELKRTIRTLEDKVAEMEAQQCNGIYIWKIGNFGMHLKSQEEERPVVIHSPGFYTGRPGYKLCMRLHLQLPTAQRCANYISLFVHTMQGEYDSHLPWPFQGTIRLTILDQSEALIRQNHEEVMDAKPELLAFQRPTIPRNPKGFGYVTFMHLEALRQGTFIKDDTLLVRCEVSTRFDMGGLRKEGFQPRSTDAGV
